The text below walks through data of patent publication US20240306670A1, “BERBERINE ALKALOIDS IN THE PREVENTION AND/OR TREATMENT OF INTESTINAL DISEASE” (priority 2017, published 2024).

Entries after “also recorded” stand apart in the source; their conditions may differ.

A short description of data set [1]: Feed palatability, feed and water consumption and bird productivity study (Example 2). The data set is classed as in vivo, broiler chickens. Particulars: for water intake: vs untreated. An excerpt:
A follow-up study to determine the feed palatability, feed and water consumption and bird productivity following incorporation of a single formulation of IRP001 hemisulfate salt (unmasked) when offered to broiler chickens in-feed or in-water. The study explores the optimal treatment regime in terms of treatment start date.
Phase 1: On receipt, two hundred and seventy (270) day-old commercial broiler chickens were allocated sequentially as they are received into sixteen (16) individual floor pens, each of 16 or 17 birds, on Day 0.
Phase 2: On receipt, the ninety (90) day-old commercial broiler chickens were allocated sequentially as they are received into four (4) individual floor pens, each of 22 or 23 birds, on Day 22.
Feed intake, water intake, weight gain and mortality were used as outcome parameters.
Individual daily feed intake and individual daily water intake data by pen and then by treatment group were calculated for Phases 1 and 2 (and for the entire trial for the birds in Group/Pen 2, 15 and 16 that continue through both Phases) using figures for total feed and water provided each day to each pen divided by the number of birds in each pen. Where errors in weighing, feeding/watering or recording (or other unexplained losses of feed and water) had occurred means were adjusted by using the mean value for the same pen on the 1-2 days either side of the apparent error. Similarly, group mean bodyweights were calculated for Phase 1 using total weight/total no. birds for Day 0 and individual weights from Days 7, 14, 21, 28, 35 and 42. Total (individual) feed consumed was calculated per treatment and feed conversion ratios per treatment calculated using the expression: total (individual) feed/total (individual) weight gain.
Individual daily feed intake and individual daily water intake were statistically compared by treatment within each phase and between Pens 2 and 15/16 over both phases using a linear model:—
and Tibco SPOTFIRE S+ 8.2 (2010). ‘Day’ was included in the model to allow for changes over time, ‘Pen’ as each treatment consisted of 2 pens while an interaction term ‘Treatment:Day’ was included to allow for treatment×time effects. Model suitability was confirmed by inspection of residual plots; in all instances the statistical model was appropriate.

Data set [2] deals with Eimeria species (mainly E. acervulina). The conditions noted are these: in vivo.
Setting [3] is: Phase 1+2, pen 2 untreated vs 15/16 treated in-water day 6-42.

As for berberine hemisulfate [IRP001 sulfate], in data set [1] (setting [3]), the “difference in feed eaten over the total trial, untreated vs treated” value is listed as ~0.14 kg and the “water intake over the total trial” value is listed as “untreated birds drinking more water”. In addition, the water intake result in data set [1] (Phase 1, unmasked, 1.0 g/L in drinking water over varying periods) is “drank less water; also recorded: tended to drink less water”. Also, in data set [1] (Phase 2, 2 g/kg in-feed days 25-42), the water intake result was “drinking more water; also recorded: tended to drink more water”. Also, the feed consumed in data set [1] (treated birds, in-water days 6-42) stood at 3.84 kg.
Turning to `COc1ccc2cc3[n+](cc2c1OC)CCc1cc2c(cc1-3)OCO2` [IRP001 chloride, berberine chloride], the “feed consumed over the trial” value in data set [2] is recorded as “consumed less feed over the trial than any other group”.
